Measurements reported in PubChem BioAssay AID1508588 (Peter MacCallum Cancer Centre, 2020).
Assay: 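Knock-downs boosting vemurafenib effects on melanoma cell growth or lactate release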 (primary screen). System: human WM266.4 melanoma cells (BRAF V600 mutant). Reagents: siRNA pool against human genes, 40 nM. Time to read-out: 96 h from transfection to read-out. Challenge: vemurafenib 300 nM (about IC25), added 48 h after transfection, for 48 h; comparison arm got DMSO vehicle only. Measured: 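Ratios to non-targeting siRNA for cell gain, counted as DAPI nuclei after minus before drug and averaged over two replicates, and for absorbance-read medium lactate per cell; both binned into fold-change classes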. Scale: cell gain with vemurafenib: higher = more cell gain than with non-targeting siRNA; lactate per cell with vemurafenib: higher = more lactate made per cell. Rule for the call: 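a knock-down counts as enhancing when its fold-change classes with vehicle and with vemurafenib, taken together, show a stronger drug effect on cell gain or lactate per cell; exact class pairs not stated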. Calls: active = enhances vemurafenib effect; inactive = no enhancement seen.
This is a random part of about 18,000 reagents. 790 of all reagents (4.4%) were called active. 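Calls rest on a combination of fold-change classes in drug and vehicle arms, not all shown here.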 A reagent listed more than once was tested more than once; the source does not tell the runs apart.

target gene | cell gain with vemurafenib | lactate per cell with vemurafenib | outcome
ITPRIP (GeneID 85450) | 1.27 | 0.62 | inactive
MAGED4B (GeneID 81557) | 0.93 | 0.91 | inactive
H4C4 (GeneID 8360) | 0.36 | 2.13 | inactive
IFT81 (GeneID 28981) | 0.31 | 1.49 | inactive
DPPA2 (GeneID 151871) | 1.18 | 0.46 | inactive
RBM46 (GeneID 166863) | 0.48 | 1.19 | inactive
MANF (GeneID 7873) | 0.23 | 0.7 | active
TRIM51G (GeneID 120824) | 0.98 | 1.25 | inactive
TRIM51G (GeneID 120824) | 0.2 | 1.42 | inactive
HEBP1 (GeneID 50865) | 0.26 | 0.57 | active
RANBP3 (GeneID 8498) | 0.3 | 0.57 | inactive
ALDH3A1 (GeneID 218) | 0.41 | 0.75 | inactive
CFDP1 (GeneID 10428) | 0.34 | 0.71 | inactive
CYP2R1 (GeneID 120227) | 0.21 | 0.24 | inactive
GRAMD1A (GeneID 57655) | 0.65 | 1.36 | inactive
SRD5A2 (GeneID 6716) | 0.1 | 1.75 | inactive
LINGO2 (GeneID 158038) | 0.47 | 1.97 | inactive
ANKRD6 (GeneID 22881) | 0.6 | 0.82 | inactive
SHC1 (GeneID 6464) | 0.83 | 0.44 | active
GUCD1 (GeneID 83606) | 0.81 | 1.36 | inactive
GPR20 (GeneID 2843) | 0.38 | 1.02 | inactive
CD300C (GeneID 10871) | 0.53 | 1.48 | inactive
GLDN (GeneID 342035) | 0.81 | 1.27 | inactive
CLDN16 (GeneID 10686) | 0.82 | 0.5 | inactive
TNK1 (GeneID 8711) | 0.57 | 1.74 | inactive
GPX4 (GeneID 2879) | 0.62 | 1.05 | inactive
MRPS16 (GeneID 51021) | 0.88 | 1.64 | inactive
MATN3 (GeneID 4148) | 0.83 | 0.87 | inactive
FAM124B (GeneID 79843) | 0.54 | 0.71 | inactive
NDUFB10 (GeneID 4716) | 0.83 | 1.04 | inactive
CACNA1F (GeneID 778) | 0.74 | 0.88 | inactive
KLK5 (GeneID 25818) | 0.19 | 0.92 | inactive
ANKRD40 (GeneID 91369) | 0.72 | 0.75 | inactive
RPS6KC1 (GeneID 26750) | 0.85 | 0.79 | inactive

Sorted by “lactate per cell with vemurafenib” (highest first): some entries from above
target gene | cell gain with vemurafenib | lactate per cell with vemurafenib | outcome
LINGO2 (GeneID 158038) | 0.47 | 1.97 | inactive
SRD5A2 (GeneID 6716) | 0.1 | 1.75 | inactive
GRAMD1A (GeneID 57655) | 0.65 | 1.36 | inactive
CFDP1 (GeneID 10428) | 0.34 | 0.71 | inactive
CYP2R1 (GeneID 120227) | 0.21 | 0.24 | inactive
